Source: patent US20160312240A1, “MODIFIED PYR/PYL RECEPTORS ACTIVATED BY ORTHOGONAL LIGANDS” (The Regents of the University of California, priority 2010, published 2016)
Where a chain is given by its changes, count along the chain named. At least one compound was matched to its structure with a doubt left.

Experiments:
Assay in all cases: Yeast two-hybrid growth assay, MAV99 URA3 reporter (PYR1-GAL4 BD / HAB1-GAL4 AD)
Format in all cases: cell-based
[1] = target: T1, PYR1 mutant BTH-9 (F159L) (Arabidopsis thaliana, UniProt O49686, F159L); conditions: 200 μM; clone BTH-9; media lacking uracil
T1 construct: expressed in transfected cells; host or cells: S. cerevisiae strain MAV99
T1 sequence (O49686 1-191 F159L): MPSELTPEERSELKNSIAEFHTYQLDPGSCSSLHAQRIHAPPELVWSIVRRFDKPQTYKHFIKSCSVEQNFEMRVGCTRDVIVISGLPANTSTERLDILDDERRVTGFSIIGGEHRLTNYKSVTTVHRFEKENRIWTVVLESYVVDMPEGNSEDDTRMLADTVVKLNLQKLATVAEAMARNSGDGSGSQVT
T1 sequence (Q9CAJ0 23-511 partner): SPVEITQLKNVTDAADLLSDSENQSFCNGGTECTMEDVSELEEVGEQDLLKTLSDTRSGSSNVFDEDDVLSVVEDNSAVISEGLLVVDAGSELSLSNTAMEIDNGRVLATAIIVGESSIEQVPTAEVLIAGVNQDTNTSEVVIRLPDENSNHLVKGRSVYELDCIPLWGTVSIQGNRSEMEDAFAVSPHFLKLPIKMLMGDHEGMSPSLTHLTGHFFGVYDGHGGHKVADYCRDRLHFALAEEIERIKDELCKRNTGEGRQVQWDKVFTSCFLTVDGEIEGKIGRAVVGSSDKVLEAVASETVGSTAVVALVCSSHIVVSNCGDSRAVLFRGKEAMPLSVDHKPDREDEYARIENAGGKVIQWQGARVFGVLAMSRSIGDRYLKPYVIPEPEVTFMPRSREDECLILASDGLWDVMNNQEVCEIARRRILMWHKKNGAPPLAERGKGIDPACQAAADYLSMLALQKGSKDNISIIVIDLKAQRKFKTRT

[2] = target: T2, PYR1 mutant BTH-An7 (Q24R, K59R, I82T, F159L, D161G) (Arabidopsis thaliana, UniProt O49686, D161G/F159L/I82T/K59R/Q24R); conditions: 200 μM; clone BTH-An7; media lacking uracil
T2 construct: expressed in transfected cells; host or cells: S. cerevisiae MAV99
T2 sequence (O49686 1-191 Q24R/K59R/I82T/F159L/D161G): T1 sequence (O49686 1-191 F159L) with Q24R, K59R, I82T, D161G
T2 sequence (Q9CAJ0 23-511 partner): T1 sequence (Q9CAJ0 23-511 partner)

[3] = target: T3, PYR1 mutant BTH-1 (H115Y, F159S) (Arabidopsis thaliana, UniProt O49686, F159S/H115Y); conditions: 200 μM; clone BTH-1; media lacking uracil
T3 construct: expressed in transfected cells; host or cells: S. cerevisiae strain MAV99
T3 sequence (O49686 1-191 H115Y/F159S): T1 sequence (O49686 1-191 F159L) with H115Y, L159S
T3 sequence (Q9CAJ0 23-511 partner): T1 sequence (Q9CAJ0 23-511 partner)

Measured: Growth on [BTH]

CSC(=O)c1cccc2nnsc12 [BTH, acibenzolar-s-methyl]
+: all assays above
